Results on one molecule are retold here after publication PMC10210458.

The chains behind the UniProt entries cited, without tags or fusion partners.
UniProt O43303: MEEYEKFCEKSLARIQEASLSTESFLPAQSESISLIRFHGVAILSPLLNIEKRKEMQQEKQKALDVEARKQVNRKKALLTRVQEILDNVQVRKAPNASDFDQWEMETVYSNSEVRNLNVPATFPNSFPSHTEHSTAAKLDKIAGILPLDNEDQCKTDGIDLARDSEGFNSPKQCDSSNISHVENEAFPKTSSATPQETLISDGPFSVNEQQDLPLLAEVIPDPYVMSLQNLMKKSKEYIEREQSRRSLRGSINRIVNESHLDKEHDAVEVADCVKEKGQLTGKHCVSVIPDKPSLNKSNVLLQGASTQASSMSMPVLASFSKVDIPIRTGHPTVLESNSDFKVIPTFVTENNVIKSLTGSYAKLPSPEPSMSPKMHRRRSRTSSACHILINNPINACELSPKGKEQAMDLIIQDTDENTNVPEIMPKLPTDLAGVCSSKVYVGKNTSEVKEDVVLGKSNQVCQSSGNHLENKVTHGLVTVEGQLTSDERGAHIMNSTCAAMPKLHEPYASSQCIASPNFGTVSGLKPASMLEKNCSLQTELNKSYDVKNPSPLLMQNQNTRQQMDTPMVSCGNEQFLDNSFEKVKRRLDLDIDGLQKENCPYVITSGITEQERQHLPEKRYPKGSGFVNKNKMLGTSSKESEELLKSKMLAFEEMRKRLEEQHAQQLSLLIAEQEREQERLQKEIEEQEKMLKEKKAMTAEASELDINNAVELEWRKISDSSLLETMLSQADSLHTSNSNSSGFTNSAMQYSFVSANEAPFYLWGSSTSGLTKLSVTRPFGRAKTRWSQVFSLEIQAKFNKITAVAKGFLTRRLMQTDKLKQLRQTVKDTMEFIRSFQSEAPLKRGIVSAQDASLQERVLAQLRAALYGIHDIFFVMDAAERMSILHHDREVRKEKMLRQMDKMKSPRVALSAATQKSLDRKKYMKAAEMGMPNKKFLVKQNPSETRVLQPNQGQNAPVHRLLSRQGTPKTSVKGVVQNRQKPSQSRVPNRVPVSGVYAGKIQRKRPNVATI

Results are given in words; binding and its absence hold for the method and conditions named. Binding seen in cells or lysates may run through a third protein. Some results given as binding are weak or reduced against the parent protein; the word gives no strength. Where a sequence is shown, tags or fusion partners need not be part of it.

Assay [1] deals with T1, CEP97 (centrosomal protein of 97 kDa) (human (endogenous in HEK293T)) (UniProt Q8IW35).
T1 sequence: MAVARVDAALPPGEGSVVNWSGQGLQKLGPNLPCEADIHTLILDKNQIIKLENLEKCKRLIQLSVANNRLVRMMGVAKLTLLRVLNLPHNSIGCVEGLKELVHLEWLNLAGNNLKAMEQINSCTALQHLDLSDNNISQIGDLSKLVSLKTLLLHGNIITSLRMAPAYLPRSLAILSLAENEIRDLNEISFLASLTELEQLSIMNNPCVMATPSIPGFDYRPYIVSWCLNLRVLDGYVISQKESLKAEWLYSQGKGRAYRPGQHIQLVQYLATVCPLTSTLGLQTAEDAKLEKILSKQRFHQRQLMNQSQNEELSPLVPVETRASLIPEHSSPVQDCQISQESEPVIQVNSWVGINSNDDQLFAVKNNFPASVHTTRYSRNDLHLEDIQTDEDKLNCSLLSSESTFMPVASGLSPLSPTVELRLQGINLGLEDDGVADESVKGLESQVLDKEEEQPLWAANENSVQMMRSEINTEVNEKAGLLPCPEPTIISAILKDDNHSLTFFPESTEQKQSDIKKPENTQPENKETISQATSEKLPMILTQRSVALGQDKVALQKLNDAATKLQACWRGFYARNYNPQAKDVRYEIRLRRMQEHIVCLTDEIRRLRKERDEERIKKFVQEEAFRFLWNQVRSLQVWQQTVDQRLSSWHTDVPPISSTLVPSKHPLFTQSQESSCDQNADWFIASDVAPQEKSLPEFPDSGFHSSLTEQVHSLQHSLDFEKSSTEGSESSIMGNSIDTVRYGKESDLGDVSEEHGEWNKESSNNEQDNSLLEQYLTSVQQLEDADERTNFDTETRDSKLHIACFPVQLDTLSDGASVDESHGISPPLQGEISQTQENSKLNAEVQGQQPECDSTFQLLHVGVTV
The experiment in a line: co-IP; lysates of control HEK293T cells or cells stably expressing CCP5 precipitated with CP110 or CEP97 polyclonal antibodies on protein A/G magnetic beads, 4 °C, at least 2 h; immunoblot.

The target in assay [2] is CP110 (centriolar coiled-coil protein of 110 kDa) (human (endogenous in HEK293T)) (UniProt O43303). The assay is described as above.

B1: myc-tagged CCP5 (cytosolic carboxypeptidase 5), full length (enzyme, UniProt Q8NDL9 1-886)
chain: MELRCGGLLFSSRFDSGNLAHVEKVESLSSDGEGVGGGASALTSGIASSPDYEFNVWTRPDCAETEFENGNRSWFYFSVRGGMPGKLIKINIMNMNKQSKLYSQGMAPFVRTLPTRPRWERIRDRPTFEMTETQFVLSFVHRFVEGRGATTFFAFCYPFSYSDCQELLNQLDQRFPENHPTHSSPLDTIYYHRELLCYSLDGLRVDLLTITSCHGLREDREPRLEQLFPDTSTPRPFRFAGKRIFFLSSRVHPGETPSSFVFNGFLDFILRPDDPRAQTLRRLFVFKLIPMLNPDGVVRGHYRTDSRGVNLNRQYLKPDAVLHPAIYGAKAVLLYHHVHSRLNSQSSSEHQPSSCLPPDAPVSDLEKANNLQNEAQCGHSADRHNAEAWKQTEPAEQKLNSVWIMPQQSAGLEESAPDTIPPKESGVAYYVDLHGHASKRGCFMYGNSFSDESTQVENMLYPKLISLNSAHFDFQGCNFSEKNMYARDRRDGQSKEGSGRVAIYKASGIIHSYTLECNYNTGRSVNSIPAACHDNGRASPPPPPAFPSRYTVELFEQVGRAMAIAALDMAECNPWPRIVLSEHSSLTNLRAWMLKHVRNSRGLSSTLNVGVNKKRGLRTPPKSHNGLPVSCSENTLSRARSFSTGTSAGGSSSSQQNSPQMKNSPSFPFHGSRPAGLPGLGSSTQKVTHRVLGPVREPRSQDRRRQQQPLNHRPAGSLAPSPAPTSSGPASSHKLGSCLLPDSFNIPGSSCSLLSSGDKPEAVMVIGKGLLGTGARMPCIKTRLQARPRLGRGSPPTRRGMKGSSGPTSPTPRTRESSELELGSCSATPGLPQARPPRPRSAPAFSPISCSLSDSPSWNCYSRGPLGQPEVCFVPKSPPLTVSPRV
As to B1, the binding entry in assay [1] is listed as “no binding”; in assay [2], “binds”.
